{
  "source": "patent US20140348966A1",
  "about": "“GARCINIA BUCHANANII BAKER COMPOUNDS, COMPOSITIONS AND RELATED METHODS” (priority 2011, published 2014)",
  "system": "guinea pig distal colon",
  "test": "fecal pellet propulsion motility assay in isolated distal colon (GIMM)",
  "details": "intraluminal, after 20 minutes; extract 2 g/100 mL Krebs; granisetron 2 μM; GR-113808 5 μM",
  "procedure": "Gastrointestinal Motility Assays: Segments (˜10 cm long) of distal colon were pinned on either end in a Sylgard-lined 50 mL organ bath, continuously perfused with oxygenated Krebs solution (rate: 10 mL min^−1) and maintained at temperatures between 36 and 37° C. Tissues were initially allowed to equilibrate for 30 mins in re-circulating Krebs solution. Colonic motility was studied using the Gastronintestinal Motility Monitoring system (GIMM; Med-Associates Inc., Saint Albans, Vt., USA), which included a digital video camera (Catamount Research and Development Inc, St Albans, Vt., USA) to film fecal pellet propulsion. […] The GIMM system software calculated velocities by tracking pellets as they traversed colon segments. […] The effects of extract and test compounds were evaluated by obtaining velocities of four trials taken at 5-min intervals (5-20 min) Normalized velocity data for these treatments were obtained by dividing the test velocities acquired by the average velocity of the five pellet propulsion runs performed in vehicle solution (runs 1-5, above). […]\nA segment (˜10-12 cm long) of distal colon was pinned on either end in a Sylgard-lined 50 mL organ bath being continuously perfused with oxygenated Krebs solution (rate: 10 mL min^−1) and maintained at temperatures between 36-37° C. […] Baseline velocities were measured for 20 minutes. […]",
  "data": [
    {"smiles": "CN1C2CCCC1CC(NC(=O)c1nn(C)c3ccccc13)C2.Cl", "note": "(stereo not shown) [granisetron, granisetron hydrochloride]", "values": [
      {"measurement": "inhibition of pellet propulsion", "value": 15, "unit": "%"}
    ]}
  ]
}
